For assay [1], the target named is T1, AtBPC6 (Arabidopsis thaliana BASIC … 6), full-length, yeast two-hybrid fusion (Arabidopsis thaliana) (UniProt Q8L999).
T1 sequence: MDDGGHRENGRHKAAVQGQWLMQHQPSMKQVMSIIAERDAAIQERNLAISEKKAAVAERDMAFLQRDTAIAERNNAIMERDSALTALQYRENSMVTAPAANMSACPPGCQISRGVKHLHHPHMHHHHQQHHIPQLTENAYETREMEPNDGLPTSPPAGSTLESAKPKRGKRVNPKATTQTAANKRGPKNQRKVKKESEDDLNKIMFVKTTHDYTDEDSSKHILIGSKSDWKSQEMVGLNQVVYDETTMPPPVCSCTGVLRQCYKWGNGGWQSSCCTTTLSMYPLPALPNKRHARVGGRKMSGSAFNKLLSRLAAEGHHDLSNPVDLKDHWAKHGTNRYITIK
The assay can be described thus: two-hybrid; AD (pGADT7-DEST) and BD (pGBKT7-DEST) fusions in yeast PJ69-4A; growth on selective media (CSM-L-,W-,Ade-) and β-galactosidase reporter activity (MUG substrate, n = 9), background from empty AD-clone combinations.

Assay [2] concerns the target T2, BPC6-RFP (AtBPC6 with RFP at the C-terminus) (Arabidopsis thaliana) (UniProt Q8L999).
T2 sequence: T1 sequence
The assay can be described thus: FRET or BRET; FRET-FLIM in planta: GFP (donor) and RFP (acceptor) fusions of AtBPC6 transiently co-expressed in Nicotiana benthamiana epidermis cells; RFP-FRET fluorescence under GFP excitation and GFP fluorescence lifetime; controls BPC6-GFP alone and with mCherry-NLS. (In general: Bioluminescence resonance energy transfer reports proximity on the nanometre scale.)

Assay [3] has as its target T3, RFP-BPC6 (AtBPC6 with RFP at the N-terminus) (Arabidopsis thaliana) (UniProt Q8L999).
T3 sequence: T1 sequence
The assay is described as above.

Assay [4] addresses T4, AtBPC6, split-YFP (BiFC) fusion (Arabidopsis thaliana) (UniProt Q8L999).
T4 sequence: T1 sequence
The assay can be described thus: split reporter; BiFC with split-YFP fusions (YFP fragments at the N-termini) in transiently transformed Nicotiana benthamiana leaf epidermis cells; YFP fluorescence scored by CLSM one to two days post infiltration.

In assay [5] the target is AtBPC4 (Arabidopsis thaliana BASIC … 4), yeast two-hybrid fusion (Arabidopsis thaliana) (UniProt Q8S8C6). The assay can be described thus: two-hybrid; AD (pGADT7-DEST) and BD (pGBKT7-DEST) fusions in yeast PJ69-4A; growth on selective media (CSM-L-,W-,Ade-) and β-galactosidase reporter activity (MUG substrate, n = 9), background from empty AD-clone combinations.
The target of assay [6] is AtBPC1 (Arabidopsis thaliana BASIC … 1), yeast two-hybrid fusion (Arabidopsis thaliana) (UniProt Q9SKD0). The assay is described as above.

Results are given in words; binding and its absence hold for the method and conditions named. For some assays here: Binding seen in cells or lysates may run through a third protein. Some entries that bind do so weakly or less than the wild type. Sequences can lack the tags named with a protein.

B1: AtBPC6 (Arabidopsis thaliana BASIC … 6), full-length, yeast two-hybrid fusion (protein, UniProt Q8L999 1-342)
chain: T1 sequence
As to B1, the binding entry in assay [1] is reported as “binds”.

B2: BPC6-GFP (AtBPC6 with GFP at the C-terminus) (protein, UniProt Q8L999 1-342)
chain: T1 sequence
As for B2, the binding entry in assay [2] and in assay [3] was “binds” in each case.

B3: AtBPC6, split-YFP (BiFC) fusion (protein, UniProt Q8L999 1-342)
chain: T1 sequence
For the molecule B3, in assay [4], the binding entry was “binds”.

B4: GFP-BPC6 (AtBPC6 with GFP at the N-terminus) (protein, UniProt Q8L999 1-342)
chain: T1 sequence
For B4, the binding result in assay [2] and in assay [3] was “binds” each time.

B5: AtBPC4, split-YFP (BiFC) fusion (protein, UniProt Q8S8C6 1-296)
chain: MENGGQYDNARFKPDYFKGAQSMWNMIPQHQIKEQHNALVMNKKIMSILAERDAAVHERNQAVSAKKEAVAARDEALQQRDKALSERDKALIERDNAYAALQHHENSLNFALSGGKCVDGDDCFGIGEPHKLEVFPLSTIPPEVTNTKVVNKRKKENKQGLSKVKKVGEDLNRRVPAPGKKSRTDWDSQDVGLNLVTFDETTMPVPMCSCTGSTRQCYKWGNGGWQSSCCTTTLSQYPLPQMPNKRHSRMGGRKMSGNVFSRLLSRLSAEGYDLSCPVDLKDYWARHGTNRYITIK
Regarding B5, the binding result in assay [4] is “binds”.

B6: AtBPC4 (Arabidopsis thaliana BASIC … 4), yeast two-hybrid fusion (protein, UniProt Q8S8C6 1-296)
chain: B5 chain
With B6, the binding entry in assay [1] and in assay [5] was “binds” in each case.

B7: AtBPC1 (Arabidopsis thaliana BASIC … 1), yeast two-hybrid fusion (protein, UniProt Q9SKD0 1-283)
chain: MDDDGFRNWGYYEPAAASSFKGNLGLQLMSTIDRNTKPFLPGRESNLMIGSNGSYHSREQDMNYSWINQPKDNKFFNMLPISTPSYSNVLSETSGSNSIQMIHQPVLNSSRFEENPIPPPAPCEEQTGKKRKMRGSIATPTVPKAKKMRKPKEERDVTNNNVQQQQQRVKPVKKSVDLVINGVSMDISGLPVPVCTCTGTPQQCYRWGCGGWQSACCTTNISVYPLPMSTKRRGARISGRKMSQGAFKKVLEKLSTEGYSFGNAIDLKSHWARHGTNKFVTIR
On to B7, for which, in assay [6], the binding result is on record as “binds weakly”.

B8: YFP^C-bZIP63 (protein, UniProt B9DGI8 1-314)
chain: MEKVFSDEEISGNHHWSVNGMTSLNRSASEWAFNRFIQESSAAADDGESTTACGVSVSSPPNVPVDSEEYRAFLKSKLNLACAAVAMKRGTFIKPQDTSGRSDNGGANESEQASLASSKATPMMSSAITSGSELSGDEEEADGETNMNPTNVKRVKRMLSNRESARRSRRRKQAHLSELETQVSQLRVENSKLMKGLTDVTQTFNDASVENRVLKANIETLRAKVKMAEETVKRLTGFNPMFHNMPQIVSTVSLPSETSNSPDTTSSQVTTPEIISSGNKGKALIGCKMNRTASMRRVESLEHLQKRIRSVGDQ
B8: the binding result in assay [4] was “no binding”.

The record behind these values is paper PMC3037368.
